According to paper doi:10.1101/795211 (bioRxiv, 2019):
These are yes or no findings as the source states them, for the method shown. Sequences can lack the tags named with a protein.

Target: His-dihydrofolate reductase
Assay: BLI

B1: YoeB toxin from Agrobacterium tumefaciens (AtYoeB), expressed alone, after removal of the GST-His affinity tag (natural protein)
chain: MKLVWTLSSWDDYEFWQRTDARMVEKINDLIRNAKRTPFAGLGKPEPLKGDMAGYWSRRITAEHRFVYRVSGSGSEQRLEVIQCRFHYQ
For B1, the binding was “no binding”.
